Experimental data reported in US20090081314A1, “Glycemic Control, Diabetes Treatment, and Other Treatments with Acetyl Cholinesterase Inhibitors” (priority 2007, published 2009).
Like-named read-outs stand apart in the source and are kept apart here.

[1] = patient twenty, one month of donepezil 5 mg orally daily

COc1cc2c(cc1OC)C(=O)C(CC1CCN(Cc3ccccc3)CC1)C2 (centres unmarked) [donepezil]
triglycerides (patient five, after one month of donepezil 5 mg daily, before greater than 200): less than 140 mg %
HDL cholesterol (patient five, after one month of donepezil 5 mg daily, before less than 40): greater than 50
HDL cholesterol (patient four, after one month of donepezil 5 mg daily, before 30): 50
blood pressure (patient four, after one month of donepezil 5 mg daily, before approx. 180/95): 130/80
triglycerides (patient four, after one month of donepezil 5 mg daily, before greater than 400): less than 180 mg %
fasting blood sugars (patient four, during donepezil 5 mg daily, before greater than 140): less than 100 mg %
fasting blood sugars (patient three, donepezil 5 mg daily, before greater than 125): less than 100 mg %
HDL cholesterol (patient three, one month of donepezil 5 mg daily, before 43): 54
triglycerides (patient three, one month of donepezil 5 mg daily, before 171): 129
systolic blood pressure (patient three, one week of donepezil 5 mg daily, on losartan 80 mg): less than 120 mm Hg
fasting blood sugars (patient twenty-one, after donepezil 5 mg daily): less than 110 mg %
HDL cholesterol (patient twenty-one, one month of donepezil 5 mg daily, before 37): 48
triglycerides (patient twenty-one, one month of donepezil 5 mg daily, before 162): 132
blood pressure [1]: 130/70
fasting blood sugars [1]: less than 100 mg %
HDL cholesterol (patient twenty, one month of donepezil 5 mg orally daily, before 37): 52
triglycerides (patient twenty, one month of donepezil 5 mg orally daily, before 171): 93
